This note sets out measurements from publication PMC9700865.

Protein sequences, listed by entry. Tags and fused reporters are not part of them.
UniProt Q92786: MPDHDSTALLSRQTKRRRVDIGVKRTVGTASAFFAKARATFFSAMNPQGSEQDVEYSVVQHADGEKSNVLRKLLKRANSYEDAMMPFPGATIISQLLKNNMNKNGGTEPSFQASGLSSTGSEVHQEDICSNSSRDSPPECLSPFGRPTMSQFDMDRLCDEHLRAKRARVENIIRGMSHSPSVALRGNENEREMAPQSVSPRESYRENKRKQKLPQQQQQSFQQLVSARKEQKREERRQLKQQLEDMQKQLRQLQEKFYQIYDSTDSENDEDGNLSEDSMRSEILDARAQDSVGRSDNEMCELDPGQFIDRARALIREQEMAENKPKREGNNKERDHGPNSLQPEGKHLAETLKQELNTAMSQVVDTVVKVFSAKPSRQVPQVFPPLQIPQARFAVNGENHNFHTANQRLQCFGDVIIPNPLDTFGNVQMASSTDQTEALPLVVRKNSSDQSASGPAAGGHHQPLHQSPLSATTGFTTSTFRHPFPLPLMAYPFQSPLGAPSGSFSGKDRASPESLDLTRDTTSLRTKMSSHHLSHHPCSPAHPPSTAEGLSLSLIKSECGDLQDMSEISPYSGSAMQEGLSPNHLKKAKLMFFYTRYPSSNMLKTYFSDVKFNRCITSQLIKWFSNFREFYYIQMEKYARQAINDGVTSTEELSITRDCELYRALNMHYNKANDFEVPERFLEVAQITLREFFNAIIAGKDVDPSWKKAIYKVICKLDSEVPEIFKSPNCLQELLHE
UniProt Q16531: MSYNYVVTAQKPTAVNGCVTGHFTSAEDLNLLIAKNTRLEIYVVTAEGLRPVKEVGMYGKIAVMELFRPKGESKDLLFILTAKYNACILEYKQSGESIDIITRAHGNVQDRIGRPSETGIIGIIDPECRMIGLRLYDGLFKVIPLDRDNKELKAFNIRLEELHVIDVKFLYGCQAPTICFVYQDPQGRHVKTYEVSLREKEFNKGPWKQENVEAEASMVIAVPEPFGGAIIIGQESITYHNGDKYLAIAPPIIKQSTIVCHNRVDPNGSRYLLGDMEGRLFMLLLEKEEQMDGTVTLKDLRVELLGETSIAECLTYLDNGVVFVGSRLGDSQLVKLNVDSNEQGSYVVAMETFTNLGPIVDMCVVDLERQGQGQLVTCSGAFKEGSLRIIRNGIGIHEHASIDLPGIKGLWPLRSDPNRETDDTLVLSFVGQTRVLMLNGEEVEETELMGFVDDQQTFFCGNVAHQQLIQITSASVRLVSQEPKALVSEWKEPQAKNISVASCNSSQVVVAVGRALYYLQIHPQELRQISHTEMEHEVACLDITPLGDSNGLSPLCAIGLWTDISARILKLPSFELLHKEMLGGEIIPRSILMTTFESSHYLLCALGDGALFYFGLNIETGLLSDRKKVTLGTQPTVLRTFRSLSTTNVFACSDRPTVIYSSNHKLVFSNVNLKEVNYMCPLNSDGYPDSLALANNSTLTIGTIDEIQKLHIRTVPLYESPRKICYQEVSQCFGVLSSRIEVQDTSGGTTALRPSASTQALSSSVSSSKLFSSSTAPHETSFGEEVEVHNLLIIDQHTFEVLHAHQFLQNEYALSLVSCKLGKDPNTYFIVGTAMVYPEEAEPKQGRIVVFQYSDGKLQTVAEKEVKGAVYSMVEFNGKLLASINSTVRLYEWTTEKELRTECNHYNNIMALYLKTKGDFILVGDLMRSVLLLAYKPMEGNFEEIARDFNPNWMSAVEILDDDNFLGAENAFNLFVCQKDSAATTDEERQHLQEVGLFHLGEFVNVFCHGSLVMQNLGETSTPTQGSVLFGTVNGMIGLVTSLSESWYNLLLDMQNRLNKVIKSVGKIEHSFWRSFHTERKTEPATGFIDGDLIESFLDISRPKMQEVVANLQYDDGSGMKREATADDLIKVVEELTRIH
UniProt Q13619: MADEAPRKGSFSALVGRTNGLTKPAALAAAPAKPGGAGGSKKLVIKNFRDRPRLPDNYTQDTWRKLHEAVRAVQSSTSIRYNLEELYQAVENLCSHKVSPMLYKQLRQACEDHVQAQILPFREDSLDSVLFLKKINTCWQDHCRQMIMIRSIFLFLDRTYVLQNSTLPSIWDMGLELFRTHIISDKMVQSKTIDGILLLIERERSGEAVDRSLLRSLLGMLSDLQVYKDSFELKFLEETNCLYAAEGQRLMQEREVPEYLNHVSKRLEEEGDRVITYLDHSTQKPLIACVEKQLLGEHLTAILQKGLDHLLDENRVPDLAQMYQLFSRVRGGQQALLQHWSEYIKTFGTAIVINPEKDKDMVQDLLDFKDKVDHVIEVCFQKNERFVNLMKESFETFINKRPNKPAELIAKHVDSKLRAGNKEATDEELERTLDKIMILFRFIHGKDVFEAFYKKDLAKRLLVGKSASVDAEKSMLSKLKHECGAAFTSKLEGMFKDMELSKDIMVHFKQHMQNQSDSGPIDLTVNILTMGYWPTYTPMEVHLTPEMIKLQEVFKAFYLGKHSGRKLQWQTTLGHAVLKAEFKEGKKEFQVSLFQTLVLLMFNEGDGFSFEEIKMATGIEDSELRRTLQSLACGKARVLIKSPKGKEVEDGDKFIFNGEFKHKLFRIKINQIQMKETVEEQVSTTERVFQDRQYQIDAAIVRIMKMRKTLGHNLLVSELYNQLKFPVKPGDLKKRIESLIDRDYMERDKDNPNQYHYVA
UniProt Q13620: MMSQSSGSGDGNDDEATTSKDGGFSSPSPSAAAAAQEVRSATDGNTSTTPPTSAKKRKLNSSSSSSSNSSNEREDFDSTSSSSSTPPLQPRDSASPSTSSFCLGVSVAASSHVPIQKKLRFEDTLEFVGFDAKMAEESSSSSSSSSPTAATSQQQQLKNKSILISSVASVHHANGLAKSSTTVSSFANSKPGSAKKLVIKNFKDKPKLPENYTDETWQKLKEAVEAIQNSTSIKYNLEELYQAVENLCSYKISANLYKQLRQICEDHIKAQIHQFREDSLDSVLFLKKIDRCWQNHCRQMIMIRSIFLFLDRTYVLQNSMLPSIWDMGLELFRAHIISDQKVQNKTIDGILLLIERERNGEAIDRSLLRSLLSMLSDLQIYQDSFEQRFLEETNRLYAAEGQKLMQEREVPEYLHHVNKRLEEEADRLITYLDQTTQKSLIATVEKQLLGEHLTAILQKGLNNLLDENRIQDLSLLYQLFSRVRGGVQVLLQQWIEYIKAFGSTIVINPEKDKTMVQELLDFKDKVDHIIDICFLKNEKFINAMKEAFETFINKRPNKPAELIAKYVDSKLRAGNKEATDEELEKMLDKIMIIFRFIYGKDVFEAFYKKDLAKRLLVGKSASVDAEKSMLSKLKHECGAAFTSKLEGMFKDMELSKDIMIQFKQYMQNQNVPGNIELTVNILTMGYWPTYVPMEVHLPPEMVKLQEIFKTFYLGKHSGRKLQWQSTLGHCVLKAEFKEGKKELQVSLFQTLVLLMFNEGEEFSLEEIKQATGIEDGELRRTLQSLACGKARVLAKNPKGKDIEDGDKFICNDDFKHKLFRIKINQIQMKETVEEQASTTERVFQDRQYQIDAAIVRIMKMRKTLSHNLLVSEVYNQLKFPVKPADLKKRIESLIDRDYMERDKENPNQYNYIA

These are yes or no findings as the source states them, for the method shown. Binding seen in cells or lysates may run through a third protein. These calls come from enrichment with a bait or labelling near it, and not all partners need be listed.

This test deals with FLAG-PROX1, wild type, expressed in HEK293T (UniProt Q92786). Description: affinity purification with mass spectrometry; HEK293T cells transfected with FLAG-PROX1 or control plasmid, RIPA lysate, anti-FLAG M2-agarose beads, washed six times, SDS-PAGE, mass spectrometry; glucose starvation in the presence of MG132.

With “DDB1 found by mass spectrometry with FLAG-PROX1 (from UniProt Q16531 1-1140)”, the binding result was “binds”.

Take “CUL4A found by mass spectrometry with FLAG-PROX1 (from UniProt Q13619 1-759)”: the binding entry was “binds”.

As for “CUL4B found by mass spectrometry with FLAG-PROX1 (from UniProt Q13620 1-913)”, the binding entry is “binds”.
